# Results from PubChem BioAssay AID504847 (National Center for Advancing Translational Sciences (NCATS), 2011).
# Sequences of proteins named here, by UniProt entry; tags and fusion partners are left off. A change or cut given only in a name is not applied to a line headed by its entry.
# UniProt P11473: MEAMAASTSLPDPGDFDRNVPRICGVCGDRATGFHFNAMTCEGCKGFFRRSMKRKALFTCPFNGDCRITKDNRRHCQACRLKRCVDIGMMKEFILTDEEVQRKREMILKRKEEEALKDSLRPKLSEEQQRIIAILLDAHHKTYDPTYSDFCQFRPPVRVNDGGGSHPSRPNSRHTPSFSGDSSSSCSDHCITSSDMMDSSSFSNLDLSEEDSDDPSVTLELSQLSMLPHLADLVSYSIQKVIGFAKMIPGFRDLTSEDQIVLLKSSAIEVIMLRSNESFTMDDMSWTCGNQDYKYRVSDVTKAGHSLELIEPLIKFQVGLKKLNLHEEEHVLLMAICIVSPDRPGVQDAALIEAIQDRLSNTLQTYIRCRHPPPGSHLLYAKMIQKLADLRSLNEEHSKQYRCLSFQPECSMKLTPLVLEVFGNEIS
# The campaign covered roughly 400,000 compounds. About 3,700 (0.93%) were called active. The inconclusive results got no clear call from the source; some entries with a clear call stand among them for comparison. The call rests on the fitted dose curve; in most records, active means well fitted inhibition curve with a large enough effect; inconclusive means small, poorly fitted or top-dose-only effect, or another doubt; inactive means no such curve, though single readings can be large or run the other way. A potency beside an inconclusive call is a rough fit, not a confirmed value.
# Biological target: Vitamin D3 receptor (Homo sapiens) (UniProt P11473)
# Experiment: Inhibitors of the vitamin D receptor (VDR): qHTS
# Details: VDR-SRC2-3 peptide fluorescence polarization, 2 h; max response, negative = inhibition: stronger effect = lower value
# In short: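 After 23 nl compound addition and a short centrifugation, plates sat for 2 hours at ambient temperature; polarization of fluorescence then indicated loss of VDR binding to peptide SRC2-3.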
# On the % scale 0 is the no-effect control and ±100 the full control effect; potency means the concentration at half of the fitted maximal effect.
SMILES,"max response, negative = inhibition",Potency
Cc1cc(C)cc(NC(=S)Nc2ccccn2)c1,inactive: -10.3%,–
CCc1ccccc1NC(=S)/N=C(\N)Nc1nc(C)c2cc(C)ccc2n1,–,"inconclusive: 56.2 µM [inhibitor, partial curve, poor fit]"
COC(=O)CSc1[nH]c2ccc(F)cc2c1[N+](=O)[O-],–,"inconclusive: 56.2 µM [inhibitor, partial curve, poor fit]"
CC(=O)O[C@H]1C[C@@]2(C)[C@@H](C[C@@H](O)[C@H]3[C@@]4(C)CC[C@@H](O)[C@@H](C)[C@@H]4CC[C@@]32C)/C1=C(\CCC=C(C)C)C(=O)O,–,"inconclusive: 63.1 µM [inhibitor, partial curve, poor fit]"
COc1ccccc1CNC(=O)CCNC(=O)Cn1ccc2ccccc2c1=O,inactive: 2.88%,–
CC1CC(=O)c2c(cc3c(-c4c(O)cc(O)c5c(O)c6c(cc45)OC(C)CC6=O)c(O)cc(O)c3c2O)O1 (stereo not given),–,"inconclusive: 79.4 µM [inhibitor, single point]"
COc1cc(/C=C2\N=C(C)OC2=O)cc(OC)c1OC,–,active: 39.8 µM
S=C1NC2=C(CCC/C2=C\c2ccc(Cl)cc2)C(c2ccc(Cl)cc2)N1 (stereo not given),–,"inconclusive: 50.1 µM [inhibitor, partial curve, poor fit]"
COC(=O)c1c(-c2cccnc2)csc1NC(=O)c1cc(C)on1,–,active: 79.4 µM
N#Cc1ccc(CN2CCCC3(CCN(C(=O)c4ccco4)CC3)C2)cc1,–,"inconclusive: 44.7 µM [inhibitor, partial curve]"
COC(=O)c1ccc(/C=C/C(=O)c2ccc(OC)cc2)cc1,–,"inconclusive: 79.4 µM [inhibitor, single point]"
O=C(O)Cc1cccc(OCCCN(Cc2cccc(C(F)(F)F)c2Cl)CC(c2ccccc2)c2ccccc2)c1,–,active: 39.8 µM
Cc1n[nH]c(=O)nc1N/N=C/c1ccco1,inactive: -20.2%,–
N#CC1(C#N)CC(C=O)=C(N)C1(C#N)CC(=O)C12CC3CC(CC(C3)C1)C2 (stereo not given),–,"inconclusive: 50.1 µM [inhibitor, partial curve, poor fit]"
CC(=O)c1cccc(NCC(=O)c2ccc(C)c([N+](=O)[O-])c2)c1,–,"inconclusive: 70.8 µM [inhibitor, single point]"
Cc1ccc(S(=O)(=O)NCCOc2nc(N(C)C)nc(N(C)C)n2)cc1,–,"inconclusive: 20 µM [inhibitor, partial curve, poor fit]"
N#C/C(=C\c1ccc(O)c(O)c1)C(=O)NCCc1ccccc1,–,"inconclusive: 56.2 µM [inhibitor, partial curve, poor fit]"
COc1cn(CC(=O)Nc2cccc(C)c2)c(CN2CCCCC2)cc1=O,inactive: 7.56%,–
CCOC(=O)N1CCC(Nc2nc3ccccc3nc2NS(=O)(=O)c2ccc(Cl)cc2)CC1,–,"inconclusive: 100 µM [inhibitor, single point]"
Cc1cccc(C)c1NC(=S)NCCc1ccc(O)c(O)c1,inactive: -19.4%,–
CCOC(=O)c1c(C)n(C)c2cc(-c3cccc(C(F)(F)F)c3)c(O)cc12,inactive: -15.6%,–
O=C(N/N=C/c1ccsc1)c1ccccn1,inactive: 19.4%,–

SMILES,"max response, negative = inhibition",Potency
O=C(Nc1cccc2c1C(=O)NC2=O)c1ccc(N2C(=O)CCC2=O)cc1,–,"inconclusive: 12.6 µM [inhibitor, partial curve, poor fit]"
COc1cc(C2Oc3nc(SC)nnc3-c3ccccc3N2C(C)=O)cc(Cl)c1OC (stereo not given),inactive: -14%,–
Cc1ccc(N(CC(=O)NCc2ccc(F)cc2)C(=O)CCC(=O)Nc2ccccn2)cc1C,–,"inconclusive: 79.4 µM [inhibitor, single point]"
CCN(CC)c1ccc(C=C2C(=O)OC3(CCCCC3)OC2=O)cc1,–,"inconclusive: 89.1 µM [inhibitor, single point]"
O=C(c1ccncc1)N1CCN(S(=O)(=O)c2ccc(F)cc2)CC1,inactive: -0.669%,–
COCCNc1ncnc2ccc(-c3cccc(NS(C)(=O)=O)c3)cc12,–,"inconclusive: 89.1 µM [inhibitor, single point]"
O=C(NCCC1=CCCCC1)c1cnccn1,inactive: -11.4%,–
Cc1ccc(S(=O)(=O)/N=C2/NC(=O)/C(=C/c3cc([N+](=O)[O-])ccc3O)S2)cc1,–,"inconclusive: 79.4 µM [inhibitor, partial curve, poor fit]"
O=C(NC1(C(F)(F)F)C(=O)Nc2c1c(=O)[nH]c(=O)n2-c1ccccc1)c1cccnc1 (stereo not given),inactive: -25.9%,–
O=C(CSc1nnc(COc2ccc(Cl)cc2)o1)N1CCN(c2ccccc2)CC1,–,"inconclusive: 44.7 µM [inhibitor, full curve, poor fit]"
c1ccc(OCc2nnc3sc(C4COc5ccccc5O4)nn23)cc1 (stereo not given),–,active: 70.8 µM
O=C(/C=C/c1ccc(N2CCOCC2)cc1)c1ccccc1,–,"inconclusive: 79.4 µM [inhibitor, single point]"
CC(=O)Nc1ccc(N2Cc3ccccc3C2)cc1,–,"inconclusive: 89.1 µM [inhibitor, single point]"
CCCCC1(C)OC(=O)C(=Cc2ccc(N(CC)CC)cc2)C(=O)O1 (stereo not given),–,"inconclusive: 50.1 µM [inhibitor, partial curve]"
O=C(c1cc(C(F)(F)F)cc(C(F)(F)F)c1)N1CCC2(CCCN(Cc3nccs3)C2)CC1,–,"inconclusive: 44.7 µM [inhibitor, partial curve, poor fit]"
COCc1cc(N2CCCCC2)nc(-c2ccccc2)n1,–,"inconclusive: 22.4 µM [inhibitor, partial curve, poor fit]"
CC(C)Cn1c(N)c(C(=O)COC(=O)C2CCCCC2)c(=O)n(C)c1=O,–,"inconclusive: 14.1 µM [inhibitor, partial curve, poor fit]"
CCCN(CCC)S(=O)(=O)c1ccc2c(c1)CCCN2C(C)=O,inactive: 4.66%,–
CCOc1ccc(-c2nc(SCC(=O)Nc3ccc4c(c3)OCCO4)c(-c3ccc(F)cc3)[nH]2)cc1,inactive: 4.79%,–
O=C(C(=Cc1ccccc1)CN1CCCCC1)c1ccccc1,–,"inconclusive: 89.1 µM [inhibitor, single point]"
O=C(CCOc1ccccc1)N1CCN(S(=O)(=O)c2ccccc2F)CC1,inactive: 0.093%,–
CC(=O)N1CCCc2cc(S(=O)(=O)N3CCN(c4ccc(F)cc4)CC3)ccc21,inactive: -3.42%,–

SMILES,"max response, negative = inhibition",Potency
O=C(CN1C(=O)CSC1=O)N1CCCC(Nc2ccc(F)cc2)C1 (stereo not given),–,"inconclusive: 70.8 µM [inhibitor, partial curve]"
COc1ccc([C@@H]2[C@@H](C(=O)C(C)(C)C)N3N=Cc4ccccc4[C@@H]3C23C(=O)OC(C)(C)OC3=O)cc1OC,–,"inconclusive: 89.1 µM [inhibitor, single point]"
COc1cc(N2C(=O)C=CC2=O)ccc1N1C(=O)C=CC1=O,–,"inconclusive: 4.47 µM [inhibitor, full curve, poor fit]"
Cc1cc(/C=N/n2cnnc2)c(C)n1-c1ccc(OCc2ccc(Cl)cc2Cl)cc1,inactive: 2.27%,–
CCCN1CNc2c(c(=O)[nH]c(=S)n2CCc2cccc(Cl)c2Cl)C1,–,"inconclusive: 79.4 µM [inhibitor, single point]"
COc1ccc(S(=O)(=O)N2CCN(C(=O)CCSc3ccccc3)CC2)cc1,inactive: -3.93%,–
COc1ccc2oc(=N)c(C(=O)Nc3ccccc3)cc2c1,–,"inconclusive: 89.1 µM [inhibitor, single point]"
Cc1cc(NC(=O)C2CC2)ncc1NC(=O)c1ccccn1,inactive: -8.23%,–
O=C(/C=C/c1ccc(OCc2ccccc2)c(OCc2ccccc2)c1)c1cccnc1,–,"inconclusive: 79.4 µM [inhibitor, partial curve, poor fit]"
COc1ccc(C(=O)OCC(=O)Nc2cccc(S(=O)(=O)N3CCCCCC3)c2)cc1[N+](=O)[O-],–,"inconclusive: 79.4 µM [inhibitor, single point]"
O=C(NCc1ccc(Cl)cc1)c1cc2ccccc2o1,–,"inconclusive: 0.631 µM [inhibitor, full curve, poor fit]"
CC(C)(C)c1nnc(NC(=O)c2cc(-c3ccccc3)nc3ccccc23)s1,–,"inconclusive: 89.1 µM [inhibitor, partial curve, poor fit]"
O=C(Nc1cccc(C(F)(F)F)c1)c1cc(Br)cc2c1OCC2,inactive: -7.37%,–
CCCNC(=O)Cc1c(OC)ccc2cc(Br)ccc12,–,"inconclusive: 56.2 µM [inhibitor, partial curve, poor fit]"
CSc1ccccc1OCc1cc(C(=O)NCCCc2ccccc2)no1,–,"inconclusive: 89.1 µM [inhibitor, partial curve, poor fit]"
CN(Cc1ccc(C(C)(C)C)cc1)C(=O)c1ccc2c(c1)OCO2,–,"inconclusive: 89.1 µM [inhibitor, single point]"
COc1ccc(-n2c(SCC#N)nc3c(sc(=S)n3-c3ccccc3)c2=O)c(OC)c1,–,active: 25.1 µM
O=C(C[n+]1cccc2ccccc21)c1ccc([N+](=O)[O-])cc1,–,"inconclusive: 39.8 µM [inhibitor, single point]"
CCOc1ccc(N(CC(=O)NC2CCCCC2)C(=O)Cn2nnc(-c3ccc(C)o3)n2)cc1,inactive: -5.78%,–
Cc1ccc2nc(-c3cccnc3)oc2c1,–,"inconclusive: 89.1 µM [inhibitor, single point]"
CCCN1C(=O)S/C(=C/c2ccc(N3CCOCC3)o2)C1=O,–,active: 89.1 µM
